Our source for the binding values is paper PMC3473030.

By UniProt entry, the sequences of proteins in these tests, tags left out.
UniProt P38936: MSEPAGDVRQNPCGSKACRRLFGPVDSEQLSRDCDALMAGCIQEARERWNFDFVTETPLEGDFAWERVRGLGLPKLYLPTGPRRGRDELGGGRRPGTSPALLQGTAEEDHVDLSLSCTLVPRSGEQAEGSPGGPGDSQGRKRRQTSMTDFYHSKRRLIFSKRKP
UniProt P24385: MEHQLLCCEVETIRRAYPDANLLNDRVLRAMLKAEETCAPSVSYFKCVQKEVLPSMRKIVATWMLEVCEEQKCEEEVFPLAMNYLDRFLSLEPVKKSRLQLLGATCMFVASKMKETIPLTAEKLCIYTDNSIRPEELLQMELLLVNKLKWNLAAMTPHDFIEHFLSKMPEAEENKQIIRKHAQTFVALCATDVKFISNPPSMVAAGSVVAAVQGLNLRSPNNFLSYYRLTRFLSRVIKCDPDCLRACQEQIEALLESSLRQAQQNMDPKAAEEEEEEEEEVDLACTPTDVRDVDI

These are yes or no findings as the source states them, for the method shown. In cells and extracts the contact can be indirect. Some entries that bind do so weakly or less than the wild type.

The target in this test is p21 (human (endogenous in A549)) (UniProt P38936). The test can be described thus: co-IP; 200 ug protein from lysates of control or VCO-treated A549 cells (0 to 36 h); immunoprecipitated overnight at 4 C with anti-p21 antibody and protein A agarose; immunoblot with anti-cyclin D1. (In general: Immunoblotting shows a protein as a band on a membrane.)

As to cyclin D1 (from UniProt P24385 1-295), the binding entry is reported as “binds”.
